Data as given in PubChem BioAssay AID1259292 (Sanger Institute, 2017).
Here is one part, drawn at random, of 160 deposited reagents. 64 of them (40%) were called active. 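Four separate siRNAs per gene; a call can rest on any single drug, so look at each drug's score.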 The numbers tell different reagents against one gene apart. No viability above 1 is reported: the scale is capped. No sequences are given here. Not given: the amount of reagent, the time to read-out.

Aim: 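Kinase genes whose knock-down synergises with trametinib, cetuximab or BYL719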 (follow-up of hits)
Cells: human colorectal cancer RCM1 cells
Reagent: single siRNA against human genes
Conditions: anchor drugs BYL719 at 1 µM, cetuximab at 5 µg/ml or trametinib at 10 nM, or DMSO vehicle; exposure time not given
Read-out: 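Viability of cells relative to control pool 2 (non-targeting) following DMSO or drug (BYL719 1 µM, cetuximab 5 µg/ml, trametinib 10 nM), plus synergy scores by drug; averaged replicates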
Scale: synergy score with trametinib and synergy score with cetuximab and synergy score with BYL719: higher = stronger combined killing beyond expected (synthetic lethal); viability with siRNA alone (DMSO) and viability with siRNA plus trametinib: higher = more viable cells
Call rule: 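Synergy called if the score for BYL719, cetuximab or trametinib, any one of them, exceeds 0.10; genes below this for all three show no synergy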
Calls: active = synergy with at least one anchor drug; inactive = no synergy with any anchor drug

no.	gene symbol	reagent no.	synergy score with trametinib	synergy score with cetuximab	synergy score with BYL719	viability with siRNA alone (DMSO) (fraction of control)	viability with siRNA plus trametinib (fraction of control)	call
1	EPHA6 (EPH receptor A6)	1	0.111	-0.0732	-0.18	0.914	0.452	active
2	EPHA6 (EPH receptor A6)	2	0.182	-0.0445	0.104	0.71	0.254	active
3	EPHA6 (EPH receptor A6)	3	0.123	0.209	0.146	0.741	0.332	active
4	EPHA6 (EPH receptor A6)	4	-0.133	-0.0113	-0.0642	1	0.748	inactive
5	PFKFB3 (6-phosphofructo-2-kinase/fructose-2,6-biphosphatase 3)	1	-0.00843	0.214	0.0175	1	0.623	active
6	PFKFB3 (6-phosphofructo-2-kinase/fructose-2,6-biphosphatase 3)	2	0.113	0.205	-0.042	0.928	0.457	active
7	PFKFB3 (6-phosphofructo-2-kinase/fructose-2,6-biphosphatase 3)	3	-0.00598	0.0628	-0.0792	1	0.621	inactive
8	PFKFB3 (6-phosphofructo-2-kinase/fructose-2,6-biphosphatase 3)	4	0.0631	-0.0118	0.00957	0.908	0.495	inactive
9	CRIM1 (cysteine rich transmembrane BMP regulator 1)	1	-0.181	0.0927	-0.0984	1	0.796	inactive
10	CRIM1 (cysteine rich transmembrane BMP regulator 1)	2	0.0525	-0.0488	-0.0224	0.797	0.437	inactive
11	CRIM1 (cysteine rich transmembrane BMP regulator 1)	3	0.136	-0.142	-0.145	0.798	0.355	active
12	CRIM1 (cysteine rich transmembrane BMP regulator 1)	4	0.192	-0.0458	0.0126	0.669	0.219	active
13	MPP3 (MAGUK p55 scaffold protein 3)	1	0.0648	-0.0477	0.00582	1	0.55	inactive
14	MPP3 (MAGUK p55 scaffold protein 3)	2	0.0151	-0.0686	-0.103	1	0.6	inactive
15	MPP3 (MAGUK p55 scaffold protein 3)	3	0.104	-0.0807	-0.0515	0.317	0.0907	active
16	MPP3 (MAGUK p55 scaffold protein 3)	4	0.223	0.239	0.0562	0.645	0.174	active
17	PAK1 (p21 (RAC1) activated kinase 1)	1	0.119	-0.0908	-0.0244	0.782	0.361	active
18	PAK1 (p21 (RAC1) activated kinase 1)	2	0.153	0.13	0.0974	0.697	0.275	active
19	PAK1 (p21 (RAC1) activated kinase 1)	3	0.188	-0.0544	0.0435	0.841	0.329	active
20	PAK1 (p21 (RAC1) activated kinase 1)	4	-0.115	-0.0725	-0.13	0.982	0.719	inactive
21	PRAG1 (PEAK1 related, kinase-activating pseudokinase 1)	1	0.208	0.175	0.164	1	0.407	active
22	PRAG1 (PEAK1 related, kinase-activating pseudokinase 1)	2	0.182	-0.0922	-0.223	0.905	0.375	active
23	PRAG1 (PEAK1 related, kinase-activating pseudokinase 1)	3	-0.272	-0.0686	-0.15	1	0.887	inactive
24	PRAG1 (PEAK1 related, kinase-activating pseudokinase 1)	4	-0.249	-0.0686	0.0999	1	0.864	inactive
25	PLK1 (polo like kinase 1)	1	0.0864	0.192	0.0743	0.595	0.28	active
26	PLK1 (polo like kinase 1)	2	-0.00898	0.199	0.0149	0.643	0.404	active
27	PLK1 (polo like kinase 1)	3	-0.112	-0.0761	-0.101	0.455	0.391	inactive
28	PLK1 (polo like kinase 1)	4	-0.0556	-0.0238	-0.111	0.309	0.246	inactive
29	CSNK2A2 (casein kinase 2 alpha 2)	1	-0.0788	-0.144	-0.248	0.896	0.63	inactive
30	CSNK2A2 (casein kinase 2 alpha 2)	2	0.0104	-0.0386	-0.132	0.251	0.144	inactive
31	CSNK2A2 (casein kinase 2 alpha 2)	3	-0.0759	-0.0888	-0.209	0.533	0.404	inactive
32	CSNK2A2 (casein kinase 2 alpha 2)	4	0.0539	-0.0626	-0.0474	0.439	0.216	inactive
33	MAPK4 (mitogen-activated protein kinase 4)	1	0.0565	-0.00832	-0.162	1	0.558	inactive
34	MAPK4 (mitogen-activated protein kinase 4)	2	0.141	-0.0273	0.0632	0.903	0.414	active
35	MAPK4 (mitogen-activated protein kinase 4)	3	0.101	-0.0519	-0.0489	0.994	0.51	active
36	MAPK4 (mitogen-activated protein kinase 4)	4	0.0472	-0.0781	0.068	0.673	0.367	inactive
37	CDK6 (cyclin dependent kinase 6)	1	0.0408	0.0392	-0.162	1	0.574	inactive
38	CDK6 (cyclin dependent kinase 6)	2	0.226	0.173	0.0966	0.84	0.29	active
39	CDK6 (cyclin dependent kinase 6)	3	0.0457	-0.0686	-0.162	1	0.569	inactive
40	CDK6 (cyclin dependent kinase 6)	4	0.0908	0.216	-0.0638	1	0.524	active
41	GUCY2D (guanylate cyclase 2D, retinal)	1	-0.109	-0.0658	-0.162	1	0.724	inactive
42	GUCY2D (guanylate cyclase 2D, retinal)	2	0.175	-0.0312	-0.00879	0.9	0.379	active
43	GUCY2D (guanylate cyclase 2D, retinal)	3	-0.0538	-0.106	-0.215	0.788	0.538	inactive
44	GUCY2D (guanylate cyclase 2D, retinal)	4	-0.0575	-0.0686	-0.162	1	0.672	inactive
45	COASY (Coenzyme A synthase)	1	-0.181	0.0579	-0.0762	0.646	0.579	inactive
46	COASY (Coenzyme A synthase)	2	-0.123	-0.061	-0.0258	0.88	0.664	inactive
47	COASY (Coenzyme A synthase)	3	0.0881	0.0561	-0.195	0.524	0.234	inactive
48	COASY (Coenzyme A synthase)	4	-0.0866	-0.0207	-0.251	0.397	0.331	inactive
49	SYNCRIP (synaptotagmin binding cytoplasmic RNA interacting protein)	1	-0.0195	0.0848	-0.123	0.51	0.333	inactive
50	SYNCRIP (synaptotagmin binding cytoplasmic RNA interacting protein)	2	-0.017	-0.0686	-0.124	1	0.632	inactive
51	SYNCRIP (synaptotagmin binding cytoplasmic RNA interacting protein)	3	0.0181	-0.185	-0.026	0.587	0.343	inactive
52	SYNCRIP (synaptotagmin binding cytoplasmic RNA interacting protein)	4	-0.0999	-0.0686	-0.162	1	0.715	inactive

8 entries from above, ordered by “synergy score with cetuximab”, descending:
gene symbol	reagent no.	synergy score with trametinib	synergy score with cetuximab	synergy score with BYL719	viability with siRNA alone (DMSO) (fraction of control)	viability with siRNA plus trametinib (fraction of control)	call
PFKFB3 (6-phosphofructo-2-kinase/fructose-2,6-biphosphatase 3)	1	-0.00843	0.214	0.0175	1	0.623	active
EPHA6 (EPH receptor A6)	3	0.123	0.209	0.146	0.741	0.332	active
PFKFB3 (6-phosphofructo-2-kinase/fructose-2,6-biphosphatase 3)	2	0.113	0.205	-0.042	0.928	0.457	active
PFKFB3 (6-phosphofructo-2-kinase/fructose-2,6-biphosphatase 3)	3	-0.00598	0.0628	-0.0792	1	0.621	inactive
EPHA6 (EPH receptor A6)	4	-0.133	-0.0113	-0.0642	1	0.748	inactive
PFKFB3 (6-phosphofructo-2-kinase/fructose-2,6-biphosphatase 3)	4	0.0631	-0.0118	0.00957	0.908	0.495	inactive
EPHA6 (EPH receptor A6)	2	0.182	-0.0445	0.104	0.71	0.254	active
EPHA6 (EPH receptor A6)	1	0.111	-0.0732	-0.18	0.914	0.452	active
